Experimental data reported in PubChem BioAssay AID720504 (National Center for Advancing Translational Sciences (NCATS), 2013).
Out of some 360,000 compounds screened, about 10,000 (2.8%) were called active. This list was built around the results that the source calls inconclusive (neither active nor inactive); the mix of calls is not that of the screen. The call rests on the fitted dose curve; in most records, active means well fitted inhibition curve with a large enough effect; inconclusive means small, poorly fitted or top-dose-only effect; inactive means flat fitted curve, though single readings scatter. A potency beside an inconclusive call is a rough fit, not a confirmed value.

Protein sequences, listed by entry. Tags and fused reporters are not part of them.
UniProt P53350, whole entry, looked up: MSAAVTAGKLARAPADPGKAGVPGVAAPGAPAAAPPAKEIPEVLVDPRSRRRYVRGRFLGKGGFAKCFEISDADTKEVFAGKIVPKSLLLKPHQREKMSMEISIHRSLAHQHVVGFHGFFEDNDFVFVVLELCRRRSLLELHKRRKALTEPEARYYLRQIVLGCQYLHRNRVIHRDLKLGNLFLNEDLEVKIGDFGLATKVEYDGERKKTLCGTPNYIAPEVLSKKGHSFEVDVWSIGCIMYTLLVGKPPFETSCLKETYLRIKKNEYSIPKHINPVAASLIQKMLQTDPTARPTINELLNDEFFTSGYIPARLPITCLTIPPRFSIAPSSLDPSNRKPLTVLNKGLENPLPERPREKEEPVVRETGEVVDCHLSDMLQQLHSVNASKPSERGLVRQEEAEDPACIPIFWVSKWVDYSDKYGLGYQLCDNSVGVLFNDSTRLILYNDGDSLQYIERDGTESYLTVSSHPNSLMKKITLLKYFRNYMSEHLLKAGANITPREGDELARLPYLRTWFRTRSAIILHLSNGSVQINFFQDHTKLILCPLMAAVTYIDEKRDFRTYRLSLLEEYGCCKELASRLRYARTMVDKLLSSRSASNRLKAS

The compounds below were run against Serine/threonine-protein kinase PLK1 (Homo sapiens) (UniProt P53350) (assay: qHTS for Inhibitors of PLK1-PDB (polo-like kinase 1 - polo-box domain): Primary Screen). Conditions: Plk1 PBD binding of FITC phosphopeptide, fluorescence polarization.
Further: nearly all actives have a fitted effect of over 65% in size.
On the % scale 0 is the no-effect control and ±100 the full control effect; potency means the concentration at half of the fitted maximal effect.
Wherever max response, negative = inhibition is given: series mostly up to about 57 µM.

| SMILES | Potency | max response, negative = inhibition |
| --- | --- | --- |
| Cc1ccc(C2=NOC(=O)/C2=C\C=C\c2ccccc2)cc1 | active: 1.68 µM | – |
| c1ccc(CSc2nnc(Cc3ccccc3)o2)cc1 | inconclusive: 2.99 µM [inhibitor, full curve] | – |
| O=C(c1ccccc1)C1OC1C(=O)c1ccccc1 (stereo unspecified) | inconclusive: 26.7 µM [inhibitor, partial curve] | – |
| O=C(Oc1ccccc1Cl)c1ccc2c(=O)n3c(nc2c1)CCC3 | – | inactive: -6.96% |
| CC(C)(C)NC(=O)NC(=O)CSc1ncc(C(F)(F)F)cc1Cl | active: 29.9 µM | – |
| Cn1c(=O)c2c(nc(OC/C=C/c3ccccc3)n2C)n(C)c1=O | – | inactive: -15.8% |
| O=c1[nH]c2nc(Br)[nH]c(=O)c2[nH]1 | inconclusive: 4.74 µM [inhibitor, partial curve, poor fit] | – |
| CC(C)c1ccc(CN(C(=O)/C=C/c2ccco2)C2CCS(=O)(=O)C2)cc1 (stereo unspecified) | – | inconclusive: -32.7% [inhibitor] |
| O=C(CCSc1nnc(-c2ccncc2)o1)Nc1ccc(Cl)cc1 | inconclusive: 26.7 µM [inhibitor, partial curve] | – |
| COc1ccc(/C=N/Nc2ncnc3c2[nH]c2ccccc23)c(OC)c1OC | – | inactive: -6.84% |
| NS(=O)(=O)c1ccc(CNC(=O)c2cnccn2)cc1 | active: 16.8 µM | – |
| COc1ccc(N2C(=O)CSC23C(=O)Nc2ccccc23)cc1 (stereo unspecified) | inconclusive: 26.7 µM [inhibitor, single point] | – |
| N#C/C(=C\c1ccc(OCc2ccc(F)cc2)cc1)C(=O)Nc1cccc(C(=O)O)c1 | inconclusive: 18.9 µM [inhibitor, single point] | – |
| Clc1ccccc1-c1nnc2sc(-c3cccs3)nn12 | inconclusive: 23.8 µM [inhibitor, partial curve] | – |
| Cc1cccc2c(C(=O)N3CCN(c4ccccn4)CC3)cc(-c3cccc(Br)c3)nc12 | inconclusive: 23.8 µM [inhibitor, partial curve] | – |
| CCc1nnc(NC(=O)CSc2nnc(-c3ccccc3NC(=O)c3ccccc3)o2)s1 | – | inactive: -7.28% |
| Cc1ccc(CN(CC(=O)NC2CCCC2)C(=O)CSc2nnc(COc3ccccc3)o2)cc1 | active: 29.9 µM | – |
| Cc1ccc(C)c(N2CCN(c3nc4ccccc4c(=O)n3Cc3ccccc3)CC2)c1 | – | inactive: -13.5% |
| Brc1cccc(OCCCN2CCCCCC2)c1 | – | inactive: -8.17% |
| N#Cc1c(SCC(=O)Nc2nc3ccc(Br)cc3s2)sc2c(O)cc(=O)[nH]c12 | inconclusive: 21.2 µM [inhibitor, partial curve] | – |
| O=C(NNc1ccccc1)C(=O)NNS(=O)(=O)c1ccc([N+](=O)[O-])cc1 | – | inactive: -5.48% |
| Cc1ccccc1S(=O)(=O)Cc1ccc(C(=O)NCCc2ccccc2)o1 | inconclusive: 26.7 µM [inhibitor, partial curve] | – |
| Cc1ccc(NC(=O)CCSc2ccccn2)cc1 | inconclusive: 26.7 µM [inhibitor, partial curve] | – |

| SMILES | Potency | max response, negative = inhibition |
| --- | --- | --- |
| Cc1ccc(NS(=O)(=O)c2cccc(C(=O)NCC(c3ccco3)N3CCCCC3)c2)cc1 (stereo unspecified) | – | inactive: -8.5% |
| CNc1ccn(C2CCCO2)c(=O)n1 (stereo unspecified) | – | inactive: -6.33% |
| CN(C)CCN(C(=O)C1=COCCO1)c1nc2ccc(F)cc2s1 | – | inactive: 2.57% |
| COc1cccc(-c2nn(C)c3sc(C(=O)NCc4ccc(C)o4)cc23)c1 | inconclusive: 37.7 µM [inhibitor, single point] | – |
| Cc1ccccc1-c1nc(CS(=O)CC(=O)NCc2ccccn2)c(C)o1 (stereo unspecified) | inconclusive: 29.9 µM [inhibitor, single point] | – |
| CCOc1cc(/C=C2/C(=N)N3N=C(CC)SC3=NC2=O)ccc1OC(=O)c1ccco1 | inconclusive: 23.8 µM [inhibitor, partial curve] | – |
| NNc1cc([N+](=O)[O-])cc2c1C(=O)N(Cc1ccccc1)S2=O (stereo unspecified) | inconclusive: 23.8 µM [inhibitor, partial curve] | – |
| Cc1ccc(NC(=O)CSc2nc(N)c3c4c(sc3n2)CSC(C)(C)C4)cc1 | – | inactive: -1.27% |
| COc1ccc(C(=O)NN/C(C)=C/C(=O)c2ccccc2)cc1 | – | inactive: -9.96% |
| COc1ccc(NS(=O)(=O)c2ccc(Cl)c(C(=O)O)c2)cc1S(=O)(=O)N1CCCCC1 | inconclusive: 26.7 µM [inhibitor, single point] | – |
| O=C(NCCc1ccccc1)c1cccs1 | – | inactive: -6.83% |
| CC(CC(=O)Nc1ccccc1)NCCCN1CCCC1=O (stereo unspecified) | – | inactive: 2.71% |
| Cc1ccc(-n2c(-c3ccccc3)c[nH]c2=S)cc1 | inconclusive: 23.8 µM [inhibitor, partial curve] | – |
| CC(=O)Nc1ccc(SCC(=O)N(CCC#N)c2cc(C)cc(C)c2)cc1 | inconclusive: 26.7 µM [inhibitor, partial curve] | – |
| Cc1c(-c2ccc(Cl)cc2)oc(=O)c2c(N)n(-c3ccccc3)nc12 | – | inactive: -5.55% |
| Cn1nccc1C(=O)Nc1sc2c(c1C#N)CCCC2 | inconclusive: 29.9 µM [inhibitor, partial curve] | – |
| O=C(Nc1ccccc1)c1ccc(CSc2ccccn2)cc1 | inconclusive: 23.8 µM [inhibitor, partial curve] | – |
| CCOC(=O)c1c(NC(=O)C2CC(Cl)=CCC2C(=O)O)sc2c1CCCCC2 (stereo unspecified) | inconclusive: 26.7 µM [inhibitor, single point] | – |
| COc1ccccc1-c1noc2c1C(=O)N(Cc1cn(-c3ccccc3OC)nn1)CC2 | – | inactive: -8.1% |
| CC(C)(Oc1ccc(F)cc1)C(=O)OCC(=O)c1ccc(S(C)(=O)=O)cc1 | – | inactive: -11.4% |
| CC(=O)Nc1ccc2nc(NS(=O)(=O)c3ccc(C)cc3)sc2c1 | – | inactive: -11.3% |
| CC[C@]12c3[nH]c4ccc(OC)cc4c3CCN1C(=O)C(CC(=O)NCCCn1ccnc1)C[C@@H]2C(=O)N1CCN(C(=O)C2CC2)CC1 (stereo partly specified) | inconclusive: 18.9 µM [inhibitor, single point] | – |
| CCOc1ccc(N=Nc2c(=O)[nH]n3c(=O)c4c([nH]c23)CCCC4)cc1 | – | inconclusive: -33.9% [inhibitor] |

Some of the entries above, reformatted:
SMILES	Potency	max response, negative = inhibition
Cc1ccc(NS(=O)(=O)c2cccc(C(=O)NCC(c3ccco3)N3CCCCC3)c2)cc1 (stereo unspecified)	–	inactive: -8.5%
CNc1ccn(C2CCCO2)c(=O)n1 (stereo unspecified)	–	inactive: -6.33%
CN(C)CCN(C(=O)C1=COCCO1)c1nc2ccc(F)cc2s1	–	inactive: 2.57%
